Data: PubChem BioAssay AID2685 (National Center for Advancing Translational Sciences (NCATS), 2010)
Some of the results follow. The main result of the screen is listed elsewhere. These columns were measured beside it and carry no call. Most of these compounds were active or inconclusive in the main read-out, so they are no random draw. Potencies come from curve fits of mixed quality, noted in brackets.

Assay: qHTS Assay for Lipid Storage Modulators in Drosophila S3 Cells;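 on cell number change: cells counted by Cell Tracker Red CMTPX staining in the red channel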
Conditions: BODIPY lipid droplet fluorescence, 18-24 h; for cell number change: measured here: cell count max response, cells fed with added oleic acid
Summary of the method: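 Drosophila S3 cells loaded with oleic acid (400 uM, as added) and compounds at several concentrations; lipid droplets imaged by 488-nm laser-scanning cytometry, 500–530 nm intensity and object ratio to cell channel. Percent activity normalized to 20 uM Triacsin C.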

[1] = measured here: lipid fluorescence (Fed channel) AC50, cells fed with added oleic acid
[2] = measured here: cell number channel AC50, cells fed with added oleic acid

Structure (SMILES): Cc1ccc(CNC(=O)C2CCCN(S(=O)(=O)N3CCC(C)CC3)C2)cc1 (stereo not drawn)
- cell number change: -13.7%
- AC50 [1]: 6.51 µM [falling, single point]

Structure (SMILES): CCOc1ccc2[nH]c(=O)c(CN(Cc3ccc(F)cc3)C(=O)c3ccco3)cc2c1
- cell number change: 4.14%
- AC50 [2]: 0.00461 µM [falling, full curve, poor fit]

Structure (SMILES): O=C(COC(=O)c1nn(-c2ccccc2)c(=O)c2ccccc12)NC1CCS(=O)(=O)C1 (stereo not drawn)
- cell number change: -35.9%
- AC50 [2]: 0.13 µM [falling, full curve, poor fit]

Structure (SMILES): N=C1C(c2nc3ccccc3[nH]2)=C(O)CN1NC(=O)c1c[nH]c2ccccc12
- AC50 [1]: 6.51 µM [falling, single point]

Structure (SMILES): Cc1nc2cc(NS(=O)(=O)c3c(C)c(C)cc(C)c3C)ccc2s1
- cell number change: -23.3%
- AC50 [1]: 16.4 µM [falling, partial curve, poor fit]

Structure (SMILES): Cc1ccc(-n2c(C)cc(C(=O)Cn3nc(C(=O)O)c4ccccc4c3=O)c2C)cc1
- cell number change: -20.4%
- AC50 [1]: 16.4 µM [falling, partial curve, poor fit]

Structure (SMILES): Cc1cccc2c1-c1sc(C(=O)Nc3nccs3)cc1CO2
- cell number change: -11%
- AC50 [2]: 4.61 µM [rising, partial curve, poor fit]
- AC50 [1]: 0.206 µM [rising, full curve, poor fit]

Structure (SMILES): Cn1c(CC(=O)Nc2ccc(Cl)c(Cl)c2)nnc1SCC(=O)N1CCN(c2ccccc2)CC1
- cell number change: 141%

Structure (SMILES): Cc1cccc(C)c1NC1=NC(=S)N(c2ccc(N(C)C)cc2)C1(C)C
- cell number change: -21.9%
- AC50 [1]: 14.6 µM [falling, partial curve, poor fit]

Structure (SMILES): O=C(NCCN1CCCC1=O)C1CCC(=O)N(CCc2ccc(Cl)cc2)C1 (stereo not drawn)
- cell number change: 11.9%

Structure (SMILES): COc1cc(OC)cc(C(=O)N[C@H](C(=O)OCC(=O)Nc2ccc(C(N)=O)cc2)C(C)C)c1
- cell number change: 43.6%
- AC50 [2]: 4.11 µM [rising, single point]
- AC50 [1]: 18.4 µM [rising, single point]

Structure (SMILES): O=C(O)Cc1ccc2ocnc2c1
- cell number change: 12.5%
- AC50 [1]: 20.6 µM [rising, single point]

Structure (SMILES): CCc1ccc(/C=C/C(=O)c2ccc(S(=O)(=O)N(C)C)cc2)cc1
- cell number change: 7.1%

Structure (SMILES): COc1ccc(CN(C)C(=O)C2CCN(C(=O)Nc3ccccc3)CC2)cc1
- cell number change: -0.105%
- AC50 [1]: 0.731 µM [falling, partial curve, poor fit]

Structure (SMILES): CN1CC(=O)N(CC(=O)N2N=C(c3ccc(Cl)cc3)CC2c2ccco2)C1=O (stereo not drawn)
- cell number change: -25.2%
- AC50 [1]: 32.6 µM [falling, single point]

Structure (SMILES): Nc1cc([N+](=O)[O-])ccc1O
- AC50 [1]: 23.1 µM [falling, single point]

Structure (SMILES): C/C(Cn1ncc(N2CCOCC2)c(Cl)c1=O)=N\O
- cell number change: 29.8%
- AC50 [2]: 0.82 µM [rising, full curve, poor fit]
- AC50 [1]: 8.2 µM [rising, partial curve]

Structure (SMILES): CC(C)OC(=O)c1sc2nc(-c3ccccc3)ccc2c1N
- cell number change: -56.1%
- AC50 [2]: 25.9 µM [falling, partial curve]
- AC50 [1]: 23.1 µM [falling, partial curve]

Structure (SMILES): CC1CCCCC1NC(=O)c1ccc(NS(=O)(=O)c2ccc3[nH]c(=O)[nH]c3c2)cc1 (stereo not drawn)
- cell number change: -24.1%

Structure (SMILES): O=c1c2ccccc2oc2nc3n(c(=O)c12)CCCS3
- cell number change: 0.533%
- AC50 [1]: 2.06 µM [rising, full curve]

Structure (SMILES): Cc1ccccc1Nc1nc(N)nc(CSc2nnnn2-c2ccccc2)n1
- cell number change: -12.2%

Structure (SMILES): O=C(OCc1nc2ccccc2c(=O)[nH]1)c1cccs1
- cell number change: -7.33%

Structure (SMILES): COc1ccc(N(Cc2cc3ccc(C)cc3[nH]c2=O)C(=O)C2CCCO2)cc1 (stereo not drawn)
- cell number change: 22%
- AC50 [2]: 0.116 µM [rising, full curve]
- AC50 [1]: 1.3 µM [rising, partial curve]

Structure (SMILES): O=C(Cn1ccc(=O)[nH]c1=O)Nc1ccc(C(=O)O)c(O)c1
- cell number change: -5.94%
- AC50 [2]: 4.61 µM [falling, single point]
- AC50 [1]: 2.06 µM [falling, full curve]

Structure (SMILES): Cc1cccc(C)c1OCC(=O)N/N=C/c1ccc2c(c1)OCO2
- cell number change: -16.6%
- AC50 [1]: 32.6 µM [falling, single point]

Structure (SMILES): COC(=O)c1cccnc1NC(=S)NNC(=O)c1ccccc1
- cell number change: -5.7%

Structure (SMILES): Cc1sc(NC(=O)c2ccco2)c(CN2CCN(c3ccc(F)cc3)CC2)c1C
- cell number change: 15%
- AC50 [1]: 6.51 µM [rising, partial curve, poor fit]

Structure (SMILES): COc1ccccc1C(=O)Nc1ccc(OCC(=O)N2CC(C)OC(C)C2)cc1 (stereo not drawn)
- cell number change: 30.1%
- AC50 [2]: 0.116 µM [rising, full curve, poor fit]
- AC50 [1]: 18.4 µM [rising, partial curve]

Structure (SMILES): CCc1ccccc1NC(=O)CCN1C(=O)C2CC=CCC2C1=O (stereo not drawn)
- cell number change: 2.06%

Structure (SMILES): C=CCn1c(O)c(N=NC(=S)Nc2ccccc2F)c2ccccc21
- cell number change: -17.6%

Structure (SMILES): CCn1nc(C(=O)OCC(=O)N(CCC#N)c2ccccc2)c2ccccc2c1=O
- cell number change: -4.54%
- AC50 [1]: 1.84 µM [falling, partial curve]

Structure (SMILES): O=C(CN1CCCCCC1)Nc1ccc(Br)cc1[N+](=O)[O-]
- cell number change: -7.92%
- AC50 [1]: 29.1 µM [falling, single point]

Structure (SMILES): COc1ccc(NC(=O)C2CCN(c3cc(-c4ccccc4)nc4ncnn34)CC2)cc1OC
- cell number change: -12.9%

Structure (SMILES): CC1CN(CCc2ccccc2)c2nc3c(c(=O)[nH]c(=O)n3C)n2C1 (stereo not drawn)
- cell number change: 23.1%
- AC50 [2]: 6.51 µM [rising, single point]

Structure (SMILES): Nc1c(C(=O)NCc2ccccc2)nnn1Cc1ccccc1
- cell number change: -17.5%
- AC50 [1]: 0.58 µM [falling, partial curve, poor fit]

Structure (SMILES): CCCC1(C(=O)OC)NC(c2ccc(OC)c(OC)c2)C2C(=O)N(c3ccc4c(c3)OCO4)C(=O)C21 (stereo not drawn)
- cell number change: 68%
- AC50 [2]: 7.31 µM [rising, partial curve]
- AC50 [1]: 2.06 µM [rising, partial curve]

Structure (SMILES): COc1ccc(C(=O)OCC(=O)Nc2cc(C)on2)c(OC)c1OC
- AC50 [1]: 0.731 µM [rising, partial curve, poor fit]

Structure (SMILES): COc1ccc(S(=O)(=O)Nc2ccccc2C(=O)N2CCOCC2)cc1F
- cell number change: -20.9%
- AC50 [1]: 23.1 µM [falling, single point]

Structure (SMILES): Cc1c(C)c(C)c(S(=O)(=O)Nc2ccc3[nH]c(=O)[nH]c3c2)c(C)c1C
- cell number change: 21%
- AC50 [1]: 29.1 µM [falling, single point]
